The source of these data is PMC4354152.

The chains behind the UniProt entries cited, without tags or fusion partners.
UniProt P31751: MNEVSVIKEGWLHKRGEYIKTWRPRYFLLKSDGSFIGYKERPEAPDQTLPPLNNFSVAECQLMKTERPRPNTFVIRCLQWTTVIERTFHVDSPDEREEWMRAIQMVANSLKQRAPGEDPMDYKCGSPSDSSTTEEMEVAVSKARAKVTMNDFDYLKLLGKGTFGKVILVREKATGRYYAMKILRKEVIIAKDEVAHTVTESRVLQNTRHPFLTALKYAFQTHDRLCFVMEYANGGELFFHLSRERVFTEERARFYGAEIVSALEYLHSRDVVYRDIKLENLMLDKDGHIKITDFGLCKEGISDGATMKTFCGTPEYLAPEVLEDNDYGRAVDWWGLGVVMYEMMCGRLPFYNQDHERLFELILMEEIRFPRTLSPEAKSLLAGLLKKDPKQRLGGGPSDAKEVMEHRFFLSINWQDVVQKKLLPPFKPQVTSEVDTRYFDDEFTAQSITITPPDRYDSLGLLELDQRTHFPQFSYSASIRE

Results are given in words; binding and its absence hold for the method and conditions named. In cells and extracts the contact can be indirect. Some results given as binding are weak or reduced against the parent protein; the word gives no strength. Sequences can lack the tags named with a protein.

The assay concerns the target T1, GST-Tmod3 WT (full-length mouse Tmod3 with GST on the N terminus) (mouse) (UniProt Q9JHJ0).
T1 sequence: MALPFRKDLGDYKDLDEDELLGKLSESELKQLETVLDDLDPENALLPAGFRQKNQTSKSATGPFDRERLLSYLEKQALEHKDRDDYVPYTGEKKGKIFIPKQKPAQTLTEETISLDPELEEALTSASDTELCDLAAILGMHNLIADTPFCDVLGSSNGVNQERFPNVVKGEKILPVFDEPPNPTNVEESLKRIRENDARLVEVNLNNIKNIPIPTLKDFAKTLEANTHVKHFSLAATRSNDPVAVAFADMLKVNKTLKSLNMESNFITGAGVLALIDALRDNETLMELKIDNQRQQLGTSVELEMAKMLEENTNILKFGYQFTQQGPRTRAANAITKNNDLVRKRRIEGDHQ
Nature of the assay: pull-down; GST-Tmod3 on glutathione beads incubated with lysates of HEK293T expressing FLAG-Akt2; TNET buffer, 4 °C, four washes, western blot; only the target purified. In general terms: A western blot detects proteins with antibodies after separation by electrophoresis.

In the case of “FLAG-Akt2 expressed in HEK293T (from UniProt P31751 1-481) (enzyme)”, the binding entry is listed as “binds”.
